Assay results from PMC8517398.
No constants are given. Whether binding was seen depends on the method and setting. In cells and extracts the contact can be indirect.

Molecular target: Toll-like receptor 4 (human (endogenous in A549 / H460)) (UniProt O00206)
Test: co-IP; anti-TLR4 antibody (sc-293072, Santa Cruz) immobilised on resin (Pierce Co-Immunoprecipitation kit); lysates of NC and mCALR cells incubated with the resin at 4°C overnight; IgG antibody as negative control

- binding: no binding
Substance: cytoplasmic CALR (from UniProt P27797 18-417)
